Results are given in words; binding and its absence hold for the method and conditions named. In cells and extracts the contact can be indirect. Some entries that bind do so weakly or less than the wild type.
T1: CD81, tetraspanin trans-membrane protein (mouse (endogenous in mouse CD19+ B cells)) (UniProt P35762)
T1 sequence: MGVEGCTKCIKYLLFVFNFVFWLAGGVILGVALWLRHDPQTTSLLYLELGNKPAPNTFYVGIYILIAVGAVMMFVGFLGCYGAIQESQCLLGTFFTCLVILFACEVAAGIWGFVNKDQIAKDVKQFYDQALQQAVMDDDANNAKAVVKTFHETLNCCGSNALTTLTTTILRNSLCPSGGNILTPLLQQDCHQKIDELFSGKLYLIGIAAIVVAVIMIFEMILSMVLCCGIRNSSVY

B1: IL-12p35 (p35) subunit of IL-35 (protein, UniProt P43431 23-215)
chain: RVIPVSGPARCLSQSRNLLKTTDDMVKTAREKLKHYSCTAEDIDHEDITRDQTSTLKTCLPLELHKNESCLATRETSSTTRGSCLPPQKTSLMMTLCLGSIYEDLKMYQTEFQAINAALQNHNHQQIILDKGMLVAIDELMQSLNHNGETLRQKPPVGEADPYRVKMKLCILLHAFSTRVVTINRVMGYLSSA
B2: Epstein-Barr virus induced gene 3 (Ebi3) subunit of IL-35 (protein, UniProt O35228 19-228)
chain: YTETALVALSQPRVQCHASRYPVAVDCSWTPLQAPNSTRSTSFIATYRLGVATQQQSQPCLQRSPQASRCTIPDVHLFSTVPYMLNVTAVHPGGASSSLLAFVAERIIKPDPPEGVRLRTAGQRLQVLWHPPASWPFPDIFSLKYRLRYRRRGASHFRQVGPIEATTFTLRNSKPHAKYCIQVSAQDLTDYGKPSDWSLPGQVESAPHKP

How the values were obtained:
[1] = biological target: T1, CD81, tetraspanin trans-membrane protein (mouse (endogenous in mouse CD19+ B cells)); assay: proximity ligation; Duolink PLA on activated B cells (i35-Bregs) fixed and adhered to glass slides; rabbit anti-CD81 + mouse anti-p35 or anti-Ebi3; signal means the two are within <40 nm
[2] = biological target: T1, CD81, tetraspanin trans-membrane protein (mouse (endogenous in mouse CD19+ B cells)); assay: co-IP; particulate (100,000 xg) fraction of i35-Breg culture supernatant (i35-exosomes) resuspended in PBS; immunoprecipitation with anti-CD81, Western blot for p35 or Ebi3

Binder	binding [1]	binding [2]
B1	binds	binds
B2	binds weakly	binds
